Reference: the supplement of paper PMC10849652
The other results are listed elsewhere or left out.

The chains behind the UniProt entries cited, without tags or fusion partners. Where a name states a change or a piece, a line headed by the entry shows the natural chain unless it says otherwise.
UniProt Q14469: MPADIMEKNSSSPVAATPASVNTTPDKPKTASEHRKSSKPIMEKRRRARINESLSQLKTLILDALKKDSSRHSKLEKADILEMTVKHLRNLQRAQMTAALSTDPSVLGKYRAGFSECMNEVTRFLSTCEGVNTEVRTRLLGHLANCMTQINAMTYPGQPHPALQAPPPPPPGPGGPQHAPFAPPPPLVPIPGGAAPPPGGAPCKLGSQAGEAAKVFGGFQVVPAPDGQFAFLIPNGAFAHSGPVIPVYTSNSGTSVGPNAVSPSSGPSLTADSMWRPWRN
UniProt P08263: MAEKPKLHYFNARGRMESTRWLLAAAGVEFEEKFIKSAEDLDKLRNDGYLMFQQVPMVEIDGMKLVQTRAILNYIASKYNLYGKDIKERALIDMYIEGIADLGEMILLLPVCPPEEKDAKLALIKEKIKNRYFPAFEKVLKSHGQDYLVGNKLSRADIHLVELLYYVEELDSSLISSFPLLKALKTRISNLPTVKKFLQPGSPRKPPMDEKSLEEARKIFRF
UniProt Q9BSE4: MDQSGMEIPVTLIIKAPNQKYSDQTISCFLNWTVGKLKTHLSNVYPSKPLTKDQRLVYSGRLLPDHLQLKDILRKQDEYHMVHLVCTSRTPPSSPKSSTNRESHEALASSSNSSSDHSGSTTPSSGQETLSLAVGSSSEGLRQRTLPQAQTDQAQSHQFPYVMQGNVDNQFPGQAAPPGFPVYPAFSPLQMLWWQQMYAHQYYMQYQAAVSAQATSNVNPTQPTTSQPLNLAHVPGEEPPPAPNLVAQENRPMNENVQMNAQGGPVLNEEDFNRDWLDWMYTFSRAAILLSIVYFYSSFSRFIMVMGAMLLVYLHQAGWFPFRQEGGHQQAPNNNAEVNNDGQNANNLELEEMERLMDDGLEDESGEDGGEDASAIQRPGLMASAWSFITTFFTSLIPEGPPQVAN
UniProt A2PYH4: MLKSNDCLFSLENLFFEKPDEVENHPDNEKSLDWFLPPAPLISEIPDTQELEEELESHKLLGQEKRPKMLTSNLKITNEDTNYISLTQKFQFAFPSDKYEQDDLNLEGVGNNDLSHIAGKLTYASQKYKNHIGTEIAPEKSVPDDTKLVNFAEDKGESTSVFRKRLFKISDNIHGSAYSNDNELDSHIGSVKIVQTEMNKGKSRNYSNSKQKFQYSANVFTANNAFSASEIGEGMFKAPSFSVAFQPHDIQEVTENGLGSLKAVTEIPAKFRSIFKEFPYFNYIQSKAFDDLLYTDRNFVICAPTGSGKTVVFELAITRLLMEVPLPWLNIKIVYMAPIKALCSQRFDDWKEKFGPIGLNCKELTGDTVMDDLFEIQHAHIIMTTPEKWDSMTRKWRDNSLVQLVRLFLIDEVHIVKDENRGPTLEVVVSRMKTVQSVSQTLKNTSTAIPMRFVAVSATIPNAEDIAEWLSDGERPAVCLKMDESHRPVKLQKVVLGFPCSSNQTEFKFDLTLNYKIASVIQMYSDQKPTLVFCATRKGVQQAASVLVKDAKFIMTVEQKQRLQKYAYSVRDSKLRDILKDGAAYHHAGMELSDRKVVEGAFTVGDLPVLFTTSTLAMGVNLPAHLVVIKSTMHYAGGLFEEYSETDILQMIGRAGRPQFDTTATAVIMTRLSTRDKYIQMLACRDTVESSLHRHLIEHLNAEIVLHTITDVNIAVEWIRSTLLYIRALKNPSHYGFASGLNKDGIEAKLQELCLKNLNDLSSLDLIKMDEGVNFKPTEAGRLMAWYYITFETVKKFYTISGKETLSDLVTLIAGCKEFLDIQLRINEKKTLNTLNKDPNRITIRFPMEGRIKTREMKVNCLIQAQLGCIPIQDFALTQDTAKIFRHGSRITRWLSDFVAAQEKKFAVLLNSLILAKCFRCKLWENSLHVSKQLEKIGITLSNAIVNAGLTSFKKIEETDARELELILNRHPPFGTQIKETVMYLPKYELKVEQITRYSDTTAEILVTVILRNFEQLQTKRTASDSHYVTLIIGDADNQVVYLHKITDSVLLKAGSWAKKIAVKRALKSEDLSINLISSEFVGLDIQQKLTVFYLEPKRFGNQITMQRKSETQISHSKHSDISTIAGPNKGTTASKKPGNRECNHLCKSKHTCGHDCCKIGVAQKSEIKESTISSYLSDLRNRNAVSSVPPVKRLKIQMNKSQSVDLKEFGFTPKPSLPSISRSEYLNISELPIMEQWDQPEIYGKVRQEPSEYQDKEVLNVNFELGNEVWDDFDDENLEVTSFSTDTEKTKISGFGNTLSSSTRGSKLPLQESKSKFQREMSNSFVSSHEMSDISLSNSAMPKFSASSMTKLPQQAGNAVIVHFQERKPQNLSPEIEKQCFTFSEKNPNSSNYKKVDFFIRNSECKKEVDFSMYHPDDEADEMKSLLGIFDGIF
UniProt P51610: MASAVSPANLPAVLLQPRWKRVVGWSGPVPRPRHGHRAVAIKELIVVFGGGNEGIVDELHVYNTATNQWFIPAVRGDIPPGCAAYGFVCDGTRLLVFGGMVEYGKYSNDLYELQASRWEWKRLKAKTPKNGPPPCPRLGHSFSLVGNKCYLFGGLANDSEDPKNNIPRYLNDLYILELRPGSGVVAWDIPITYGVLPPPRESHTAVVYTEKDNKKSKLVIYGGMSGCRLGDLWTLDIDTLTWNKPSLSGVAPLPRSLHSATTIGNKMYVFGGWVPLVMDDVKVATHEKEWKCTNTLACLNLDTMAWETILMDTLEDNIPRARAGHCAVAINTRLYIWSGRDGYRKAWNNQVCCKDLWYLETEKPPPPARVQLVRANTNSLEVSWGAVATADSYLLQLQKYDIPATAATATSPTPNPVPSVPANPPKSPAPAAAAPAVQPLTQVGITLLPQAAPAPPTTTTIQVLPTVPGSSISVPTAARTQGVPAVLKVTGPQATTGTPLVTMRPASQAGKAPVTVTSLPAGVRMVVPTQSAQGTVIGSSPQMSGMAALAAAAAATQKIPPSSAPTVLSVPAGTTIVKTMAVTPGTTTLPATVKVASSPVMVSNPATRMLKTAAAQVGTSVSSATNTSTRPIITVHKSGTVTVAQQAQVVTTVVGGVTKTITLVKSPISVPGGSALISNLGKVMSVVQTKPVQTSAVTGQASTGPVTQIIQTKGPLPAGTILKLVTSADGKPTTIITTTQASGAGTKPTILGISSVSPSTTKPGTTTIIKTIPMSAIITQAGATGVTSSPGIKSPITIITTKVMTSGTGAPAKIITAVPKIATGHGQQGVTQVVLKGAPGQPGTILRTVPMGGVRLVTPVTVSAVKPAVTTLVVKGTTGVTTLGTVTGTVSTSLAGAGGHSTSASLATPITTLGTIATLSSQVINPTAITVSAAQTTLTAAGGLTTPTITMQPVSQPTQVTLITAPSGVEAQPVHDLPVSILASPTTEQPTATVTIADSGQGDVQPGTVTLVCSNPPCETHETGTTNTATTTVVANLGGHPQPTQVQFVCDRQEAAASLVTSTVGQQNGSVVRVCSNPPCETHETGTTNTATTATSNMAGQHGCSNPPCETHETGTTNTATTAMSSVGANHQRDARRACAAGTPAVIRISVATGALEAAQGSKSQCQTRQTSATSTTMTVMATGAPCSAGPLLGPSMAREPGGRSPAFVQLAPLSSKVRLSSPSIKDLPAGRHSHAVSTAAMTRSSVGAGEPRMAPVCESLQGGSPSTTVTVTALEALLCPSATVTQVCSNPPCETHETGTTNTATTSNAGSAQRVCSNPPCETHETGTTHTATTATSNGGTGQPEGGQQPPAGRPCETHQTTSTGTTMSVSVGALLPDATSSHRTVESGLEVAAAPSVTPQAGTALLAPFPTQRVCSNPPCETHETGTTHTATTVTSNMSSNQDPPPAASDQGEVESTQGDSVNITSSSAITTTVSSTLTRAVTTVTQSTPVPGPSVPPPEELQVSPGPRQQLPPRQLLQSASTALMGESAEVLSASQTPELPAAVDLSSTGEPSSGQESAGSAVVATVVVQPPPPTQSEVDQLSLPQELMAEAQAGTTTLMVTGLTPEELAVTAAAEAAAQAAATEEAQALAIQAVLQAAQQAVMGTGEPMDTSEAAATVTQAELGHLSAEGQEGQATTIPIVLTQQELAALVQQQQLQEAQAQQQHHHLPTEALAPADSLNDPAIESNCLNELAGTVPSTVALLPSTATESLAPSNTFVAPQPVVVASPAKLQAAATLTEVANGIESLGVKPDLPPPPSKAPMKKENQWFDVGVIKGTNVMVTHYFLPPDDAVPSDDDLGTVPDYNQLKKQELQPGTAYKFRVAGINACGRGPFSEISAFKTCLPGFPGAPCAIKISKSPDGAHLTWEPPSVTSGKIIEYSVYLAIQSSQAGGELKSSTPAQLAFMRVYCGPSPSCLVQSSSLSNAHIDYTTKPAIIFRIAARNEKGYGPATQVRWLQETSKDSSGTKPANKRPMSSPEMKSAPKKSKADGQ
UniProt Q99871: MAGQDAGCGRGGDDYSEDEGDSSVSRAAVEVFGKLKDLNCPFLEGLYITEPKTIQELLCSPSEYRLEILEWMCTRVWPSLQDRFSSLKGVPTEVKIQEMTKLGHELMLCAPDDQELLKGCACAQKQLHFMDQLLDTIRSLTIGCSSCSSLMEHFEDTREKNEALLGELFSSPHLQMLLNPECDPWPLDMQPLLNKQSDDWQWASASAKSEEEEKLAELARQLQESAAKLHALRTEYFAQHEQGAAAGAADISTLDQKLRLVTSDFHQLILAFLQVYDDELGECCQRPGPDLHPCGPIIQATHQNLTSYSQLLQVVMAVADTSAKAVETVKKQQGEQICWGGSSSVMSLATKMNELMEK
UniProt Q9BT25: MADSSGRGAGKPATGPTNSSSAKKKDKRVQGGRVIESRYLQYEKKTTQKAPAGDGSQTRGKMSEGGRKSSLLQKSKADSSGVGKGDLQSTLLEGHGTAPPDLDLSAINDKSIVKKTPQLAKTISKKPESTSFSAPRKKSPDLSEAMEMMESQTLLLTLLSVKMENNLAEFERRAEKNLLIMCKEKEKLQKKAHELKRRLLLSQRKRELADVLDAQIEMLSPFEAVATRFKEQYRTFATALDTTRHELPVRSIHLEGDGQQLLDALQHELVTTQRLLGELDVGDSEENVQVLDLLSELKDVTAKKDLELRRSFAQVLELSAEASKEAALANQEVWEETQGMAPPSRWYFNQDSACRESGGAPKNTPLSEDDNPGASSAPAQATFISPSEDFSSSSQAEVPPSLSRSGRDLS
UniProt Q68CZ6: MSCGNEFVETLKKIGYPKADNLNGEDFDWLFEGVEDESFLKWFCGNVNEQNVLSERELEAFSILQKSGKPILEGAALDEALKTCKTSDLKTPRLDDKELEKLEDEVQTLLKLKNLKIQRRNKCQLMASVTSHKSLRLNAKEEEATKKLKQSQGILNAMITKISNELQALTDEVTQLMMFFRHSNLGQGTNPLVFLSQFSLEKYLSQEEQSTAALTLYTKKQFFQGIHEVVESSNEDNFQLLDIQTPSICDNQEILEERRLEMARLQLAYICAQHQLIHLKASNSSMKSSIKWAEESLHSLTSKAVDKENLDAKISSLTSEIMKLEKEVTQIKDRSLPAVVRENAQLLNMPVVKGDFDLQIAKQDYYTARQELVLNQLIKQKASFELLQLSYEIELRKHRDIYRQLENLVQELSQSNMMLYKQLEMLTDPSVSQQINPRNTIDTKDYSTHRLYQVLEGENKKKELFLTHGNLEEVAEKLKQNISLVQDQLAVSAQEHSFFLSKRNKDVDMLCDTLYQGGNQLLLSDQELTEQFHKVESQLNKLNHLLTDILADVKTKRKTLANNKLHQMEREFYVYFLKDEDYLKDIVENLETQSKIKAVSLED
UniProt Q6PII5: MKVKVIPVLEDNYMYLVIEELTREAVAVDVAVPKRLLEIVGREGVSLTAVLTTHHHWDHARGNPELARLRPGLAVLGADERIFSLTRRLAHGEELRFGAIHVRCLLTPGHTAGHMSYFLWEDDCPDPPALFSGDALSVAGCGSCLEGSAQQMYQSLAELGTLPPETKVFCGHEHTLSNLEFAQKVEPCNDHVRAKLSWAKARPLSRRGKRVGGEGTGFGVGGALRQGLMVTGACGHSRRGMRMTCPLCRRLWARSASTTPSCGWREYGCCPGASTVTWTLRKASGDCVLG
UniProt Q6Y1H2: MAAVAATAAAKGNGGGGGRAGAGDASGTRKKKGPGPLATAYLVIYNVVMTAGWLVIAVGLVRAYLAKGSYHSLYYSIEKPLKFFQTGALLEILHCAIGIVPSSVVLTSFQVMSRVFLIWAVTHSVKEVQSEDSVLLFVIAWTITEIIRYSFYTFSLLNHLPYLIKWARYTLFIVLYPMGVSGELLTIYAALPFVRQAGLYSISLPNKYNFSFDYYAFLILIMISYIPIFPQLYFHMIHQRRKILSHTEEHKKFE
UniProt Q96MH2: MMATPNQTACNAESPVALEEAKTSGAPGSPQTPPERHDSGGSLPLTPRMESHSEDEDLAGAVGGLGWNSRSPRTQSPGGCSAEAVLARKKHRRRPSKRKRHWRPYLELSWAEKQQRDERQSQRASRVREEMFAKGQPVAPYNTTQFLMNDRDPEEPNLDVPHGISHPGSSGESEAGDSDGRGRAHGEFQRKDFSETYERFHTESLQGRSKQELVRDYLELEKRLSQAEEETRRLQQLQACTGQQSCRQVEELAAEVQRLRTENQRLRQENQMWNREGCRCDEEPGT

What was measured:
Test in all cases: log2 fold change, soluble protein after heating vs DMSO (PISA); higher = thermal stabilisation; K562 cells, 10 uM, 30 min; active = over 0.2 and 3.5 SD of the protein, either way, in both replicates (recomputed)
[1] = compound: CCn1c(C(=O)N(C2CC2)C2CC2)cc2c3c(ncn3C)c(Nc3cc(C)n(C)n3)nc21
Outline: (§1)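 K562 cells at 2×10^6 cells/mL were given 10 μM compound for 30 min. Aliquots then went through 3 min of heating across 48°C-58°C, were pooled, and were extracted in PBS with 0.5% NP-40 at 4°C, and the supernatant after 21,000xg for 90 min was quantified by TMTpro 16plex LC-MS/MS with channel sums equalised. Thermal stability relative to control samples, from duplicates, is given as log2 fold change.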

[2] = compound: CCn1cc(-c2ccnc3[nH]c(-c4cccc(CN(C)C)c4)cc23)c(-c2ccc(NC(=O)N(C)C)cc2)n1
Outline: as §1

[3] = compound: CN1C2=C(C3=C1C(=O)N(N=C3)CC4=CC(=CC=C4)N)SC(=C2)S(=O)C
Outline: as §1

[4] = compound: CN1CCC(CNc2ccc3ncc(-c4cccc(OC(F)(F)F)c4)n3n2)CC1
Outline: as §1

[5] = compound: CN1CCN(CCOc2cc(OC3CCOCC3)c3c(Nc4c(Cl)ccc5c4OCO5)ncnc3c2)CC1 [saracatinib]
Outline: as §1

[6] = compound: CN1CC[C@H](c2c(O)cc(O)c3c(=O)cc(-c4ccccc4Cl)oc23)[C@H](O)C1 [alvocidib]
Outline: as §1

[7] = compound: CN1CCc2c(c3ccccc3n2Cc2ccc(C(=O)NO)cc2)C1 [Tubastatin A]
Outline: as §1

[8] = compound: CNC(=O)C1=CC=CC=C1NC2=NC(=NC=C2Cl)NC3=C(C=C(C=C3)N4CCOCC4)OC
Outline: as §1

[9] = compound: CNc1nc(-c2ccc3c(N)n[nH]c3c2)cc(N2C[C@@H](C(=O)NC3CCCCC3)CC[C@H]2C)n1
Outline: as §1

[10] = compound: CN(C)CC(=O)Nc1ccc2[nH]c(=O)c3ccccc3c2c1
Outline: as §1

[11] = compound: CNC(=O)c1ccc(Nc2ncc(C(F)(F)F)c(NCc3nccnc3N(C)S(C)(=O)=O)n2)cc1 [defactinib]
Outline: as §1

[12] = compound: COC(=O)[C@H](CCSC)NC(=O)C1=C(C=C(C=C1)NC[C@H](CS)N)C2=CC=CC=C2
Outline: as §1

[13] = compound: CC[C@@H]1C(=O)N(C)c2cnc(Nc3ccc(C(=O)NC4CCN(C)CC4)cc3OC)nc2N1C1CCCC1
Outline: as §1

[14] = compound: CC[C@H](C)N1C=C(C2=C(C=C(C=C21)C3=CN=C(C=C3)N4CCNCC4)C(=O)NCC5=C(C=C(NC5=O)C)C)C
Outline: as §1

[15] = compound: CC[C@H](C)[C@@H](C(=O)N[C@@H]([C@@H](C)O)C(=O)N[C@@H](CC(C)C)C(=O)[C@]1(CO1)C)NC(=O)[C@H]([C@@H](C)CC)N(C)C(=O)C [epoxomicin]
Outline: as §1

[16] = compound: CN(CCOC1=CC=C(C=C1)C[C@H]2C(=O)NC(=O)S2)C3=CC=CC=N3 (racemic) [rosiglitazone]
Outline: as §1

[17] = compound: CN1CCN(c2nc(C3=C(c4c[nH]c5ccccc45)C(=O)NC3=O)c3ccccc3n2)CC1 [sotrastaurin]
Outline: as §1

[18] = compound: CNCc1ccc(-c2[nH]c3cc(F)cc4c3c2CCNC4=O)cc1 [rucaparib]
Outline: as §1

[19] = compound: COC(=O)N[C@@H](C)CNc1nccc(-c2cn(C(C)C)nc2-c2cc(Cl)cc(NS(C)(=O)=O)c2F)n1 [encorafenib]
Outline: as §1

[20] = compound: CC[C@@H]1C(=O)N(C)c2cnc(Nc3ccc(C(=O)N[C@H]4CC[C@H](N5CCN(CC6CC6)CC5)CC4)cc3OC)nc2N1C(C)C [volasertib]
Outline: as §1

Measured: log2 fold change

HES1 (UniProt Q14469)
inactive: [1] 0.006 | [2] -0.005 | [3] 0.012 | [4] 0.046 | [5] -0.265 | [6] 0.011 | [7] 0.255 | [8] 0.031 | [9] 0.28

HECTD4 (UniProt Q9Y4D8)
inactive: [1] -0.053 | [10] 0.158 | [8] -0.077 | [11] -0.163 | [12] -0.225

HACE1 (UniProt Q8IYU2)
inactive: [1] -0.037 | [7] 0.086 | [8] 0.069

HDAC5 isoform 3 (UniProt Q9UQL6)
inactive: [13] -0.004 | [14] -0.024 | [15] -0.036 | [1] 0.026 | [2] 0 | [16] 0.018 | [3] -0.072 | [4] -0.095 | [5] -0.02 | [17] -0.088 | [6] -0.283 | [7] 0.062 | [8] -0.166 | [18] 0.256 | [9] -0.238 | [19] -0.06

GSTM5 (UniProt P46439)
inactive: [20] 0.084 | [14] -0.063 | [15] -0.063 | [1] 0.069 | [2] 0.04 | [10] 0.012 | [16] 0.061 | [3] -0.031 | [4] 0.009 | [5] 0.121 | [17] 0.025 | [6] 0.135 | [7] -0.017 | [8] -0.013 | [11] 0.015 | [9] -0.166 | [12] 0.044

GSTA1 (UniProt P08263)
inactive: [14] -0.237 | [15] -0.109 | [10] -0.077 | [16] 0.285 | [17] 0.016 | [7] -0.024 | [11] 0.27 | [12] -0.269

HBD (UniProt E9PEW8)
inactive: [14] 0.121 | [1] -0.083 | [2] -0.151 | [4] 0.132 | [8] -0.159

HERPUD2 (UniProt Q9BSE4)
inactive: [1] -0.059 | [10] 0.057 | [16] -0.145 | [3] 0.37 | [5] 0.025 | [6] -0.155 | [8] 0.103 | [11] -0.011 | [9] 0.006 | [12] -0.147

HFM1 (UniProt A2PYH4)
inactive: [20] -1.53 | [16] 0.222 | [3] -0.044 | [5] 0.059 | [9] -0.2

HCFC1 (UniProt P51610)
inactive: [13] 0.016 | [14] -0.102 | [1] 0.305 | [2] 0.158 | [10] -0.106 | [4] 0.067 | [17] 0.143 | [7] 0.079 | [8] 0.141 | [11] -0.283 | [18] -0.19 | [19] -0.055 | [12] 0.132

HAUS7 isoform 2 (UniProt Q99871)
inactive: [10] -0.103 | [11] 0.056 | [12] 0.084

GSPT1 isoform 2 (UniProt P15170)
inactive: [14] -0.053

HAUS8 (UniProt Q9BT25)
inactive: [20] 0.003 | [14] 0.106 | [2] 0.388 | [10] -0.073 | [4] -0.121 | [6] 0.177 | [11] -0.256 | [12] -0.026

HAUS3 (UniProt Q68CZ6)
inactive: [13] -0.013 | [20] -0.14 | [15] -0.183 | [1] -0.015 | [10] -0.094 | [3] 0.229 | [5] -0.194 | [6] 0.205 | [7] -0.063 | [8] 0.085 | [11] 0.174 | [18] 0.573 | [9] 0.166 | [19] 0.215 | [12] -0.308

HELLS (UniProt Q9NRZ9)
inactive: [15] -0.164 | [2] -0.191 | [16] 0.026 | [4] -0.012

H3-3A (UniProt P84243)
inactive: [13] -0.083 | [20] -0.239 | [14] 0.147 | [10] -0.083 | [3] 0.045 | [5] -0.094 | [17] -0.356 | [7] 0.203 | [8] 0.002 | [11] 0 | [18] 0.031 | [9] 0.189 | [19] 0.034 | [12] 0.102

HAGHL isoform 2 (UniProt Q6PII5)
inactive: [14] -0.001 | [15] -0.035 | [1] 0.033 | [10] -0.001 | [16] -0.019 | [3] 0.028 | [5] 0.126 | [17] 0.002 | [6] -0.026 | [8] 0.033 | [11] -0.133 | [9] 0 | [12] -0.074

GYG2 (UniProt O15488)
inactive: [1] -0.093 | [8] -0.028

H1-0 (UniProt P07305)
inactive: [13] 0.175 | [3] 0.029 | [5] -0.073 | [18] -0.048 | [9] -0.24 | [19] -0.202

HACD2 (UniProt Q6Y1H2)
inactive: [20] -0.154 | [1] -0.011 | [6] -0.101 | [7] 0.015 | [8] 0.046

HEXIM2 (UniProt Q96MH2)
inactive: [15] -0.12 | [2] 0.203 | [10] 0.071 | [4] -0.077 | [11] -0.213 | [12] 0.029

Two entries picked at random from the list so far:
HAGHL isoform 2 (UniProt Q6PII5)
inactive: [14] -0.001 | [15] -0.035 | [1] 0.033 | [10] -0.001 | [16] -0.019 | [3] 0.028 | [5] 0.126 | [17] 0.002 | [6] -0.026 | [8] 0.033 | [11] -0.133 | [9] 0 | [12] -0.074

HACD2 (UniProt Q6Y1H2)
inactive: [20] -0.154 | [1] -0.011 | [6] -0.101 | [7] 0.015 | [8] 0.046
